In PubChem BioAssay AID540276 (National Center for Advancing Translational Sciences (NCATS), 2011):
The whole screen tested about 300,000 compounds, of which about 5,400 (1.8%) were called active. Inconclusive results, whose numbers are uncertain, are shown with a selection of clear calls. The call rests on the fitted dose curve; tested in HEK293 cells. Potencies of inconclusive entries are doubtful fits and often do not repeat.

assay: qHTS for inhibitors of binding or entry into cells for Marburg Virus; details: Marburg virus pseudotyped entry inhibition, cell reporter; activity change, negative = inhibition: at 37.8 µM (top of the series) unless noted
On the % scale 0 is the no-effect control and ±100 the full control effect; potency means the concentration at half of the fitted maximal effect.

Compound | activity change, negative = inhibition | Potency
CCNC(=O)NC(=O)C(C)SCc1ccccc1C (stereo unspecified) | inactive: 10.7% | –
CCNC(=O)COc1ccc(CC)cc1 | – | inconclusive: 0.0046 µM [activator, full curve, poor fit]
O=C(Nc1ccccc1)Nc1nc2ccccc2s1 | – | inconclusive: 7.94 µM [inhibitor, partial curve, poor fit]
Cc1csc(-c2cnn(-c3ccccc3)c2NC(=O)c2ccc(C(F)(F)F)cc2)n1 | inactive: -13.2% | –
COCCn1c(C)cc(C2=NNC(=Nc3ccc(Cl)cc3Cl)SC2)c1C | – | inconclusive: 9.2 µM [inhibitor, single point]
O=C(Nc1ccccc1F)Nc1cc(Cl)ccc1-n1cncn1 | inactive: -15.5% [at 46.1 µM] | –
O=C(NCc1ccccc1)c1cc(S(=O)(=O)N2CCCCC2)ccc1N1CCOCC1 | – | inconclusive: 1.12 µM [activator, partial curve, poor fit]
Cc1ccc(CC2CC(=O)N(CCc3ccccc3)C2=O)cc1 (stereo unspecified) | inactive: -9.45% [at 46.1 µM] | –
COc1ccc(-n2nc3c(c2NC(=O)c2ccccc2S(=O)(=O)C(F)F)CS(=O)(=O)C3)cc1 | – | inconclusive: 7.08 µM [activator, partial curve]
C=C1C(=O)O[C@@H]2[C@H]3O[C@]3(C)CCC=C(C)CC[C@@H]12 | – | active: 22.4 µM
CN1CCC(=NNC(=O)C(=O)Nc2ccc(F)cc2)CC1 | inactive: 18.1% [at 46.1 µM] | –
O=C(O)c1cccc(Nc2ncnc3ccc(Br)cc23)c1 | – | inactive
COC(=O)N[C@@H](C=Cc1ccccc1)C[N+](=O)[O-] | inactive: 7.27% [at 14.2 µM] | –
O=C1CCCCC1C(Nc1ccc(Br)cc1)c1ccccc1 (stereo unspecified) | – | inconclusive: 11.2 µM [inhibitor, single point]
C=CCNC(=O)c1ccc(-c2ccc([N+](=O)[O-])cc2)o1 | – | inconclusive: 1.3 µM [inhibitor, single point]
O=C(COc1ccc(Br)cc1F)NC1CCN(Cc2ccccc2)CC1 | – | inconclusive: 12.6 µM [inhibitor, partial curve, poor fit]
CCCCNc1nc2c(c(=O)n(C)c(=O)n2C)n1CC(O)COc1ccccc1C (stereo unspecified) | – | inconclusive: 35.5 µM [inhibitor, single point]
CCOc1cc(-c2conc2N)cc(OCC)c1OCC | – | inconclusive: 29.1 µM [inhibitor, single point]
CCOC(=O)c1cc2c(=O)n3cccc(C)c3nc2n(Cc2ccco2)c1=NC(=O)c1cccnc1 | – | inconclusive: 11.2 µM [inhibitor, partial curve, poor fit]
Cc1ccc(NC(=O)CSc2nnc(-c3ccncc3)o2)cc1C | – | inconclusive: 3.55 µM [activator, single point]
O=C(OCCOc1cccc(Cl)c1)c1cc(S(=O)(=O)N2CCOCC2)ccc1F | inactive: 7.58% | –
Cc1ccc(O)c(NC(=O)c2noc3c2CCCC3)c1 | – | inconclusive: 3.16 µM [activator, full curve]
CNCC(O)c1cccc(OC(=O)c2ccccc2C)c1 (stereo unspecified) | – | inconclusive: 0.794 µM [inhibitor, full curve, poor fit]

Compound | activity change, negative = inhibition | Potency
CCOc1ccc(N2CCc3c(C)nc(SC)nc32)cc1 | – | inconclusive: 4.47 µM [inhibitor, partial curve]
COc1ccccc1NC(=O)C1CCN(S(=O)(=O)c2ccc3c(c2)CC(C)N3C(C)=O)CC1 (stereo unspecified) | inactive: -1.78% [at 46.1 µM] | –
Cc1cccc(NC(=S)Nc2cccc3ccccc23)c1 | inactive: -6.66% [at 46.1 µM] | –
O=C(CNc1cccc([N+](=O)[O-])c1)N/N=C/c1ccc([N+](=O)[O-])o1 | – | inconclusive: 5.01 µM [inhibitor, full curve, poor fit]
O=C(CN1C(=O)COc2ccc(S(=O)(=O)N3CCCC3)cc21)N1CCN(c2ccc(Cl)cc2)CC1 | – | inconclusive: 12.6 µM [activator, single point]
O=C(O)C(Cc1cc2ccccc2[nH]1)N1C(=O)C2CC=C(Cl)CC2C1=O (stereo unspecified) | inactive: 11.4% [at 46.1 µM] | –
COCCCNC(=O)N1[C@H](c2cccs2)[C@@H](C)C(=O)[C@@H](C)[C@@H]1c1cccs1 | inactive: 0.65% [at 46.1 µM] | –
CC(CN1CCCC1)OC(=O)c1ccc(F)cc1 (stereo unspecified) | – | inconclusive: 1 µM [inhibitor, single point]
C[C@@H]1NC(=O)[C@H](CCCN=C(N)N)NC(=O)c2cc([N+](=O)[O-])cc(I)c2NCCC[C@@H](C(N)=O)NC1=O | inactive: 3.36% | –
COc1cccc(-c2cc(C(=O)Nc3cc(OC)c(OC)c(OC)c3)no2)c1 | – | inconclusive: 23.1 µM [inhibitor, partial curve, poor fit]
CC(CN1CCOCC1)OC(=O)c1cccs1 (stereo unspecified) | inactive: -0.798% | –
Cc1ccc2c(c1)N(CC(=O)NC1CCC(C)CC1)C(=O)CO2 (stereo unspecified) | inactive: 1.01% | –
NC(=O)CCC(NS(=O)(=O)c1ccc(Cl)cc1)C(=O)NCC1CCCCC1 (stereo unspecified) | – | inconclusive: 11.2 µM [inhibitor, partial curve, poor fit]
CCCSc1ncc(Cl)c(C(=O)NCc2ccc(OC)cc2)n1 | – | inconclusive: 5.62 µM [activator, single point]
CC(C)c1ccc(N2C(=O)[C@@H]3Cc4ccccc4CN3C2=O)cc1 | – | inconclusive: 3.55 µM [inhibitor, partial curve, poor fit]
CCN(CC)S(=O)(=O)c1ccc(C(=O)N2CCc3ccccc32)cc1 | inactive: -15.7% [at 46.1 µM] | –
CN(C)CCNC(=O)c1ccc2c(c1)N(Cc1ccccc1)C(=O)c1ccccc1S2(=O)=O | – | inconclusive: 25.1 µM [inhibitor, single point]
CN(C)C(CNC(=O)c1cc2ccccc2o1)c1ccccc1 (stereo unspecified) | – | inconclusive: 3.55 µM [activator, single point]
Cc1ccccc1NC(=O)NCc1ccc2c(c1)OCO2 | inactive: 21.1% | –
O=C(Oc1cc(=O)oc2c1c(=O)n1c3c(cccc23)CC1)c1ccccc1 | – | inactive
CCOc1ccc2nc(SCC(=O)Nc3cc(C)on3)c(C)cc2c1 | – | inconclusive: 35.5 µM [inhibitor, single point]
Cc1ccccc1NC(=O)CSc1nnc(COc2ccc(Cl)cc2)o1 | – | inconclusive: 20 µM [inhibitor, partial curve, poor fit]
COc1ccccc1CC(=O)Nc1ccc([N+](=O)[O-])cc1O | – | inconclusive: 5.62 µM [inhibitor, full curve, poor fit]

As entered above:
Potency with `NC(=O)CCC(NS(=O)(=O)c1ccc(Cl)cc1)C(=O)NCC1CCCCC1` (stereo unspecified) reads inconclusive: 11.2 µM [inhibitor, partial curve, poor fit]
Potency with `O=C(Oc1cc(=O)oc2c1c(=O)n1c3c(cccc23)CC1)c1ccccc1` reads inactive
